Results deposited as PubChem BioAssay AID1224828 (NIAID, 2016).
This is an unselected part of about 17,000 reagents tested. 762 of them (4.5%) count as active. 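Active calls include both raised and lowered p65 entry, mostly lowered; wells with fewer than 50 cells lack a z-score.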 Raw values are not corrected between plates. A number with no mark means an inactive call.

Purpose: 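Regulators linking TLR4 signalling to p65 nuclear translocation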 (primary screen)
System: mouse RAW264.7 G9 macrophage reporter cells (GFP-p65, Tnf promoter-mCherry)
Knock-down reagent: siRNA pool against mouse genes, 100 nM
Timing: 2 days siRNA transfection, then 40 min LPS before fixation
Treatment: LPS (Salmonella minnesota R595) at 10 ng/ml
Measured: 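Microscopy ratio of nuclear to perinuclear-ring GFP-p65 signal, scaled to the plate median; gene score is the average of two replicate robust z-scores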
Scale: p65 translocation robust z-score: higher = more nuclear NF-kappaB p65 after LPS than the plate median; nuclear/cytoplasmic p65 ratio: higher = more nuclear NF-kappaB p65
Hit rule: 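Called active when z exceeds 3.3 or falls under -1.56 (median of Tlr4 controls), giving activity score of at least 50; no calls for control wells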
Calls: active = hit (p65 shift raised or lowered); inactive = no clear change

Syngr2 (synaptogyrin 2)
- p65 translocation robust z-score: -0.39
- nuclear/cytoplasmic p65 ratio, rep 1: 1.26
- nuclear/cytoplasmic p65 ratio, rep 2: 1.2
- low cell count flag: enough cells to score

Clec2d (C-type lectin domain family 2, member d)
- p65 translocation robust z-score: -0.04
- nuclear/cytoplasmic p65 ratio, rep 1: 1.8
- nuclear/cytoplasmic p65 ratio, rep 2: 1.44
- low cell count flag: enough cells to score

Lsm8 (LSM8 homolog, U6 small nuclear RNA associated)
- nuclear/cytoplasmic p65 ratio, rep 1: 1.38
- nuclear/cytoplasmic p65 ratio, rep 2: 1.21
- low cell count flag: fewer than 50 cells per well; well left out of scoring

Irf6 (interferon regulatory factor 6)
- p65 translocation robust z-score: -1.45
- nuclear/cytoplasmic p65 ratio, rep 1: 1.21
- nuclear/cytoplasmic p65 ratio, rep 2: 1.26
- low cell count flag: enough cells to score

Unc5d (unc-5 netrin receptor D)
- p65 translocation robust z-score: -0.42
- nuclear/cytoplasmic p65 ratio, rep 1: 1.31
- nuclear/cytoplasmic p65 ratio, rep 2: 1.2
- low cell count flag: enough cells to score

Gcsh
- p65 translocation robust z-score: -0.76
- nuclear/cytoplasmic p65 ratio, rep 1: 1.52
- nuclear/cytoplasmic p65 ratio, rep 2: 1.48
- low cell count flag: enough cells to score

Cmc2 (C-X9-C motif containing 2)
- p65 translocation robust z-score: 0.03
- nuclear/cytoplasmic p65 ratio, rep 1: 1.59
- nuclear/cytoplasmic p65 ratio, rep 2: 1.64
- low cell count flag: enough cells to score

Pcolce (procollagen C-endopeptidase enhancer protein)
- p65 translocation robust z-score: -1.45
- nuclear/cytoplasmic p65 ratio, rep 1: 1.32
- nuclear/cytoplasmic p65 ratio, rep 2: 1.16
- low cell count flag: enough cells to score

Crat (carnitine acetyltransferase)
- p65 translocation robust z-score: 0.82
- nuclear/cytoplasmic p65 ratio, rep 1: 1.58
- nuclear/cytoplasmic p65 ratio, rep 2: 1.46
- low cell count flag: enough cells to score

Xrn1 (5'-3' exoribonuclease 1)
- p65 translocation robust z-score: -1.47
- nuclear/cytoplasmic p65 ratio, rep 1: 1.22
- nuclear/cytoplasmic p65 ratio, rep 2: 1.15
- low cell count flag: enough cells to score

4933402J07Rik (RIKEN cDNA 4933402J07 gene)
- nuclear/cytoplasmic p65 ratio, rep 1: 1.04
- nuclear/cytoplasmic p65 ratio, rep 2: 1.1
- low cell count flag: fewer than 50 cells per well; well left out of scoring

Timm9 (translocase of inner mitochondrial membrane 9)
- p65 translocation robust z-score: -0.11
- nuclear/cytoplasmic p65 ratio, rep 1: 1.35
- nuclear/cytoplasmic p65 ratio, rep 2: 1.19
- low cell count flag: enough cells to score

In a second layout: results already given.
| gene | p65 translocation robust z-score | nuclear/cytoplasmic p65 ratio, rep 1 | nuclear/cytoplasmic p65 ratio, rep 2 | low cell count flag |
| --- | --- | --- | --- | --- |
| Clec2d (C-type lectin domain family 2, member d) | -0.04 | 1.8 | 1.44 | enough cells to score |
| Lsm8 (LSM8 homolog, U6 small nuclear RNA associated) | – | 1.38 | 1.21 | fewer than 50 cells per well; well left out of scoring |
